Measured values published in doi:10.1101/2022.11.05.515301.

Chains of the proteins cited; added tags and fusions are not shown. Lines headed by an entry give the natural chain unless they say otherwise; changes in a name come on top.
UniProt A0A0H3CE63: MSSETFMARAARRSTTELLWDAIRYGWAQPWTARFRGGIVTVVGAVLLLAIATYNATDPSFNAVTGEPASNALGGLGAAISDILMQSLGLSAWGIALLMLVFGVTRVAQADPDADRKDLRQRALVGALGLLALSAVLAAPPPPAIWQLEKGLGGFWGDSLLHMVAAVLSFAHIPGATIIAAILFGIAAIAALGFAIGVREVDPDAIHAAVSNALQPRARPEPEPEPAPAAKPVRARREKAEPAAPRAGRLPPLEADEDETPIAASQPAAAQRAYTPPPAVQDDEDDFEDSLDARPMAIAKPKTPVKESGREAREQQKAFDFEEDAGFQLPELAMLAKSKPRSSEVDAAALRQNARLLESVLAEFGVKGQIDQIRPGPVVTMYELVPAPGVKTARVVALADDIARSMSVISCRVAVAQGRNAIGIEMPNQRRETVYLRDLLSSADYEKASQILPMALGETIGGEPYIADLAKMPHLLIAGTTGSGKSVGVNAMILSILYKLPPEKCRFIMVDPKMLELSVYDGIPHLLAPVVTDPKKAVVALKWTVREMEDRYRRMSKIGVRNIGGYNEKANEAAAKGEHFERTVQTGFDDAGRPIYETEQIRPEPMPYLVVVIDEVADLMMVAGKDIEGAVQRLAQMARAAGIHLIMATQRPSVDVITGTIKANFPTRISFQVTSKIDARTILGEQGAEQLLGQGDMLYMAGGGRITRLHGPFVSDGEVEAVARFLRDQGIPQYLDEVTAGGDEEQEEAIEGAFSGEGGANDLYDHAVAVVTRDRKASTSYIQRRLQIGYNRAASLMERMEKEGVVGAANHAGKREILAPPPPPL

Target: 3xFLAG-FzlA (C. crescentus)
Test: affinity purification with mass spectrometry

FtsK (from UniProt A0A0H3CE63)
binding: binds

Results are given in words; binding and its absence hold for the method and conditions named. In cells and extracts the contact can be indirect. A yes stands for co-enrichment or nearness to the bait. Other partners may have been found.
